For test [1], the target named is T1, Sin3a (endogenous) (mouse (endogenous in reprogramming OG-MEFs)) (UniProt Q60520).
T1 sequence: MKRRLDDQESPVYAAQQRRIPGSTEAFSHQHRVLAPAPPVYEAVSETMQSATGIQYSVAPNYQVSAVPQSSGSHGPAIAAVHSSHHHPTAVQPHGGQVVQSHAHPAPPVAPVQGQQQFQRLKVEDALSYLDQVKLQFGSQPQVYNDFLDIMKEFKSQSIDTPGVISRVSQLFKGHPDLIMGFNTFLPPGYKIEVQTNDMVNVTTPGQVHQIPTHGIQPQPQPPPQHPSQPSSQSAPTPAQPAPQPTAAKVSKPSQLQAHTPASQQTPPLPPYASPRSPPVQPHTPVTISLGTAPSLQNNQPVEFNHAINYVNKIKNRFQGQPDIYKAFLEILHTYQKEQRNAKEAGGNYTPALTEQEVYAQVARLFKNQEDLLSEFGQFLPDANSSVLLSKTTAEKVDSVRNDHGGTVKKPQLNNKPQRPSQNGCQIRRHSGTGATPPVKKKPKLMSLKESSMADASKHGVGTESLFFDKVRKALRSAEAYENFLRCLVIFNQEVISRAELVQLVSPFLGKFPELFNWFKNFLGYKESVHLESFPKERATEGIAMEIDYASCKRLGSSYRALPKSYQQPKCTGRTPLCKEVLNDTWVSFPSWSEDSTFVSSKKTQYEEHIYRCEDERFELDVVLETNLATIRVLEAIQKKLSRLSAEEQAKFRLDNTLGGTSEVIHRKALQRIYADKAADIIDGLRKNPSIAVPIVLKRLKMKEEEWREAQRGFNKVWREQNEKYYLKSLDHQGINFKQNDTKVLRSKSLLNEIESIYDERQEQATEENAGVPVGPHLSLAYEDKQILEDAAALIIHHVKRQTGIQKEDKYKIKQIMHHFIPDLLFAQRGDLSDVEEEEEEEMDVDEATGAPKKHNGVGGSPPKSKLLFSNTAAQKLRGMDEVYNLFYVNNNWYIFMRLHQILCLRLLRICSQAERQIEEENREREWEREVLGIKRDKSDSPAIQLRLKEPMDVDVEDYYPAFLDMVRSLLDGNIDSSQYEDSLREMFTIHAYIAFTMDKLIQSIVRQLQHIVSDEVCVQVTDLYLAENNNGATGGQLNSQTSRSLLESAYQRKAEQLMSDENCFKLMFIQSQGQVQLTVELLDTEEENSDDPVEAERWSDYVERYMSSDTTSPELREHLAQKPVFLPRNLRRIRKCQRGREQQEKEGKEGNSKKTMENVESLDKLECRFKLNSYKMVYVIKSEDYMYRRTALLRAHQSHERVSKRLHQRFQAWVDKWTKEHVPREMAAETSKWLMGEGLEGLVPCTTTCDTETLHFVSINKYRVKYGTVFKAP
The test can be described thus: co-IP; endogenous proteins in lysate of reprogramming cells (Day 5 for Sin3a-Tet1); 1% Triton X-100, 50 mM Tris-HCl pH 7.4, 150 mM NaCl; antibody overnight at 4 °C, protein A/protein G affinity gel; western blotting; rabbit IgG as negative control.

Sequences of proteins named here, by UniProt entry; tags and fusion partners are left off.
UniProt Q3URK3: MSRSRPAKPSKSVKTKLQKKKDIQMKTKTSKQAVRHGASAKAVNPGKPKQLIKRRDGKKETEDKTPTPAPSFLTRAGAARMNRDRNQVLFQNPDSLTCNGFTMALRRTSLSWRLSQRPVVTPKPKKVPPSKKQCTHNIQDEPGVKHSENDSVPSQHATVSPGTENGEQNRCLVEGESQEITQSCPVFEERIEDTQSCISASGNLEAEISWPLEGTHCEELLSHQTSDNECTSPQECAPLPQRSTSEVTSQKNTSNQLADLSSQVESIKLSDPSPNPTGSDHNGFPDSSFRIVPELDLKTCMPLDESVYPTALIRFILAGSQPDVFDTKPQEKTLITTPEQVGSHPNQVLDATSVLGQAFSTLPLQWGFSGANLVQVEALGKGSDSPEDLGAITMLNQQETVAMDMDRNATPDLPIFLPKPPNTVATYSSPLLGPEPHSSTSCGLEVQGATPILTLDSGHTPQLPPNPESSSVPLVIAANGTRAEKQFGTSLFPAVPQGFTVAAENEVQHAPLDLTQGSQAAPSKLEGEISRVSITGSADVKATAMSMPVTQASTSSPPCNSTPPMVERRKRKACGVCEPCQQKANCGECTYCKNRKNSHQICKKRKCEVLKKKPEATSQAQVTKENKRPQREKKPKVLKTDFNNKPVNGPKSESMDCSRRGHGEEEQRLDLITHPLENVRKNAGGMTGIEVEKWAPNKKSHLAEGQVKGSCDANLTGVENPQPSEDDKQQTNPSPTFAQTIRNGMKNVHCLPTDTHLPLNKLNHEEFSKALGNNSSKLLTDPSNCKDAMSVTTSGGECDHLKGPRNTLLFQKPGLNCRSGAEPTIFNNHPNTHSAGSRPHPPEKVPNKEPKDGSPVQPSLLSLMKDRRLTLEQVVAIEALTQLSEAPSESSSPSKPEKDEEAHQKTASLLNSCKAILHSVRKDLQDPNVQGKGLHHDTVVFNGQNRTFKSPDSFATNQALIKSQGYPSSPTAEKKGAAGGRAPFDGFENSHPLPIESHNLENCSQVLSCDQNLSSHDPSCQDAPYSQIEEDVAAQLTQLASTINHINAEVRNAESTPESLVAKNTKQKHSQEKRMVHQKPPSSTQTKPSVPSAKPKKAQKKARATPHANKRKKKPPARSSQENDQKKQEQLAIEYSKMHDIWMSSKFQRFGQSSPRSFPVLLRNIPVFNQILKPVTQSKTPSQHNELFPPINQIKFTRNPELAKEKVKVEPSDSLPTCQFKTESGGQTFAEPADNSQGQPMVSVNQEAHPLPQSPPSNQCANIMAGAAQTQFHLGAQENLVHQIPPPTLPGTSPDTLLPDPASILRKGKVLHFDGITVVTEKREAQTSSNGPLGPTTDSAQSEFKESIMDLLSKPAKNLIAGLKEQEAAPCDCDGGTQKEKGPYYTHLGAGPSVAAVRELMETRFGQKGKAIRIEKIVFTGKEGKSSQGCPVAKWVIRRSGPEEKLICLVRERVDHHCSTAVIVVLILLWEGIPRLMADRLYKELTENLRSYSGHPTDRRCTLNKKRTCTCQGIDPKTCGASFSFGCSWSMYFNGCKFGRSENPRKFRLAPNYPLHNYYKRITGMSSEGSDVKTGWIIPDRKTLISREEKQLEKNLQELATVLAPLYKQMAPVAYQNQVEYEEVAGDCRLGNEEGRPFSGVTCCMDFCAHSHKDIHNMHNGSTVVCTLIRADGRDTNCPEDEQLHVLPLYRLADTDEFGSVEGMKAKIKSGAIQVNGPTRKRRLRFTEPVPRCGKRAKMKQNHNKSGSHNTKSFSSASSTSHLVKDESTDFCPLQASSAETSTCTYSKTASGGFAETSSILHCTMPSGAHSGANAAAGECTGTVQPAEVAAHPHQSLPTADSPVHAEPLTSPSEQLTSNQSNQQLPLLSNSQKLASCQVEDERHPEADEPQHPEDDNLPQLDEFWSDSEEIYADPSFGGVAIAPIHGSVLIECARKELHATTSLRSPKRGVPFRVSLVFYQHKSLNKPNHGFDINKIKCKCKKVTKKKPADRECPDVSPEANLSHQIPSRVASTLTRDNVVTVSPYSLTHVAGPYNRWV
UniProt O09106: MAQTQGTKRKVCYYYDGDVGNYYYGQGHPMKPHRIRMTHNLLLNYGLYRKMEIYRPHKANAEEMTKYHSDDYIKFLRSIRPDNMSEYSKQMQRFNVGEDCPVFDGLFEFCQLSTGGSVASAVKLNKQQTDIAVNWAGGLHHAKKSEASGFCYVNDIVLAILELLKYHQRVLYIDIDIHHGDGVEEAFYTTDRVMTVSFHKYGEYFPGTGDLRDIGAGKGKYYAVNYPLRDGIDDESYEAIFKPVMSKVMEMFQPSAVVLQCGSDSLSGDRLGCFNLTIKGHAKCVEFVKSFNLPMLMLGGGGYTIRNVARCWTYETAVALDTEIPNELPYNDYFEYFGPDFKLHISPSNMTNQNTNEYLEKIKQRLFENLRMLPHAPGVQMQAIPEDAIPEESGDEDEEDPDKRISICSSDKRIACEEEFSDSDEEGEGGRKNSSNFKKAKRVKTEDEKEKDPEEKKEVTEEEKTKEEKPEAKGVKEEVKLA

In test [2] the target is Tet1 (endogenous) (mouse (endogenous in reprogramming OG-MEFs)) (UniProt Q3URK3). The description is as above.

These are yes or no findings as the source states them, for the method shown. Binding seen in cells or lysates may run through a third protein. Some results given as binding are weak or reduced against the parent protein; the word gives no strength.

Take “HDAC1 (endogenous) (from UniProt O09106 1-482)”: in test [1], the binding result is reported as “binds”. The same measure, in the same setting: next, “Tet1 (endogenous) (from UniProt Q3URK3 1-2039)”: “binds”.

B1: Sin3a (endogenous) (protein, UniProt Q60520 1-1274)
chain: T1 sequence
For the molecule B1, in test [2], the binding result is “binds”.

(Values after paper PMC8785580.)
